From publication PMC7946975 come the findings set out here.

The chains behind the UniProt entries cited, without tags or fusion partners.
UniProt P42227: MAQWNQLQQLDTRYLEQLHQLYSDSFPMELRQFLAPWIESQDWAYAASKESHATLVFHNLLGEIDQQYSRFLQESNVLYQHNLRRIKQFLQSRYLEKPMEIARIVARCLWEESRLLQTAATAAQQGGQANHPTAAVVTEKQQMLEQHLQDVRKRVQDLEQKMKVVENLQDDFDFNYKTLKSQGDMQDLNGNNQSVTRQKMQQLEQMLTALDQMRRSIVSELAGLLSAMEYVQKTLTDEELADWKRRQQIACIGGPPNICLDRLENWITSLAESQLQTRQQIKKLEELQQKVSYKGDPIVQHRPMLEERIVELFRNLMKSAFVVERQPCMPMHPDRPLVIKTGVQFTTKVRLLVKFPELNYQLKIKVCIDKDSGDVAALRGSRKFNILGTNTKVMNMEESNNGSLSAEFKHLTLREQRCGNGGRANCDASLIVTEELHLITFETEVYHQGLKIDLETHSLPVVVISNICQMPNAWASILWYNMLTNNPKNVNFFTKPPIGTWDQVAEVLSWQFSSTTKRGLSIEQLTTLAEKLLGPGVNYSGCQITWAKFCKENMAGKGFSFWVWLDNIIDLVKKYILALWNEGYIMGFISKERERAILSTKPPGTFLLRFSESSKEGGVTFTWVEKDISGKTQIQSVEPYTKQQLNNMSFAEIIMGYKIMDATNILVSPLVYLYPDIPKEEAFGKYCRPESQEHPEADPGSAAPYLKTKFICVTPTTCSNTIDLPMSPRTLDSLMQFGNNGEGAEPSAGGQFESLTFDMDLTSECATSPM

The assay has as its target signal transducer and activator of transcription 3 (mouse (endogenous in MDSCs of C57BL/6 mice)) (UniProt P42227). Description: co-IP; lysate of tumor-derived MDSCs; precipitated with anti-STAT3 Abs or IgG Abs and Protein A/G plus-agarose beads, overnight at 4°C; TRAF6 and STAT3 detected by Western blotting. For orientation: A western blot detects proteins with antibodies after separation by electrophoresis.

These are yes or no findings as the source states them, for the method shown. Binding seen in cells or lysates may run through a third protein. Some entries that bind do so weakly or less than the wild type.

B1: Tumor necrosis factor receptor-associated factor 6 (protein, UniProt P70196 1-530)
chain: MSLLNCENSCGSSQSSSDCCAAMAASCSAAVKDDSVSGSASTGNLSSSFMEEIQGYDVEFDPPLESKYECPICLMALREAVQTPCGHRFCKACIIKSIRDAGHKCPVDNEILLENQLFPDNFAKREILSLTVKCPNKGCLQKMELRHLEDHQVHCEFALVNCPQCQRPFQKCQVNTHIIEDCPRRQVSCVNCAVSMAYEEKEIHDQSCPLANIICEYCGTILIREQMPNHYDLDCPTAPIPCTFSVFGCHEKMQRNHLARHLQENTQLHMRLLAQAVHNVNLALRPCDAASPSRGCRPEDPNYEETIKQLESRLVRQDHQIRELTAKMETQSMYVGELKRTIRTLEDKVAEMEAQQCNGIYIWKIGNFGMHLKSQEEERPVVIHSPGFYTGRPGYKLCMRLHLQLPTAQRCANYISLFVHTMQGEYDSHLPWPFQGTIRLTILDQSEALIRQNHEEVMDAKPELLAFQRPTIPRNPKGFGYVTFMHLEALRQGTFIKDDTLLVRCEVSTRFDMGGLRKEGFQPRSTDAGV
Take B1: the binding entry is reported as “binds”.
